{"source": "the supplement of paper PMC12889115", "tested_on": "Salmonella enterica serovar Typhimurium SL1344", "test": "bacterial growth OD600 after 18 h with compound and polymyxin B; higher = more bacterial growth (less inhibition)", "details": "50 µM, Mueller-Hinton broth", "note": "Some of the results follow. These are raw signals, not scaled to a control.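 In the initial screen, polymyxin B was used at a concentration that permeabilizes Salmonella's outer membrane but not its inner membrane. Maximum growth was set by DMSO wells with or without polymyxin B. Since plates varied, data were ranked per plate, and compounds giving the lowest OD600 advanced as hits.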"}
{"smiles": "CSCc1ccc(C(=O)N2CCC3(CCCN(C)C3=O)C2)o1", "note": "(stereo unspecified)", "values": [{"measurement": "bacterial growth OD600", "setting": "polymyxin B 1 µg/mL", "result": 0.923}]}
{"smiles": "O=C(CCCCc1ccccc1)Nc1ccc(N2CCC(NCCn3cccn3)CC2)cc1", "values": [{"measurement": "bacterial growth OD600", "setting": "polymyxin B 0.75 µg/mL", "result": 0.856}]}
{"smiles": "COCCNC(=O)c1ccc(OC)cc1OC1CCN(CCCSC)CC1", "values": [{"measurement": "bacterial growth OD600", "setting": "polymyxin B 1 µg/mL", "result": 1.16}]}
{"smiles": "NC(=O)C1(C(=O)N2CCC(C3CCN(Cc4ccc(Cl)cc4)C3)CC2)CC1", "note": "(stereo unspecified)", "values": [{"measurement": "bacterial growth OD600", "setting": "polymyxin B 0.75 µg/mL", "result": 0.995}]}
{"smiles": "CN(C(=O)c1ccccn1)C(Cc1ccccc1)C1CCN(C(=O)c2cc3ccccc3o2)CC1", "note": "(stereo unspecified)", "values": [{"measurement": "bacterial growth OD600", "setting": "polymyxin B 0.75 µg/mL", "result": 0.504}]}
{"smiles": "CCOC(=O)CNC(=O)N1CCc2onc(-c3ccc(Cl)cc3)c2C1", "values": [{"measurement": "bacterial growth OD600", "setting": "polymyxin B 0.75 µg/mL", "result": 0.993}]}
{"smiles": "CCOC(=O)CNC(=O)N1CCCC(C(=O)c2cccc(C(F)(F)F)c2)C1", "note": "(stereo unspecified)", "values": [{"measurement": "bacterial growth OD600", "setting": "polymyxin B 1 µg/mL", "result": 0.87}]}
{"smiles": "O=C(CCC1CCCN(C(=O)CN2CCOC2=O)C1)N1CCN(Cc2ccccc2)CC1", "note": "(stereo unspecified)", "values": [{"measurement": "bacterial growth OD600", "setting": "polymyxin B 1 µg/mL", "result": 1.24}]}
{"smiles": "CN1CCN([C@@H]2CCN(Cc3ccc(C4CCCC4)s3)C[C@H]2O)CC1", "values": [{"measurement": "bacterial growth OD600", "setting": "polymyxin B 0.75 µg/mL", "result": 0.766}]}
{"smiles": "COc1ccccc1Oc1ncccc1CNC(=O)Cn1cncn1", "values": [{"measurement": "bacterial growth OD600", "setting": "polymyxin B 1 µg/mL", "result": 0.897}]}
{"smiles": "CC(C)[C@H]1CN(C)CCN1C(=O)c1csc2nc(-c3ccc(Cl)cc3)cn12", "values": [{"measurement": "bacterial growth OD600", "setting": "polymyxin B 1 µg/mL", "result": 0.909}]}
{"smiles": "CC(C)(C)c1cc(CNC(=O)C2CCC(=O)N(CCc3ccccn3)C2)n[nH]1", "note": "(stereo unspecified)", "values": [{"measurement": "bacterial growth OD600", "setting": "polymyxin B 1 µg/mL", "result": 1.07}]}
{"smiles": "CSCC(=O)NC1CC(=O)N(CCc2cccc(Cl)c2)C1", "note": "(stereo unspecified)", "values": [{"measurement": "bacterial growth OD600", "setting": "polymyxin B 1 µg/mL", "result": 0.902}]}
{"smiles": "CCc1ccc(CN2CCC(CCC(=O)Nc3ccc(OC)cc3OC)CC2)o1", "values": [{"measurement": "bacterial growth OD600", "setting": "polymyxin B 1 µg/mL", "result": 1.21}]}
{"smiles": "CN(Cc1ccccc1)C(=O)CCC1CCN(S(=O)(=O)c2cccs2)CC1", "values": [{"measurement": "bacterial growth OD600", "setting": "polymyxin B 1 µg/mL", "result": 0.903}]}
{"smiles": "O=C(C1CCCC1)N1CCCC(CCc2ccccc2)C1", "note": "(stereo unspecified)", "values": [{"measurement": "bacterial growth OD600", "setting": "polymyxin B 0.75 µg/mL", "result": 0.091}]}
{"smiles": "COc1cc2nc(N(C)C)c(CNCCc3ccccc3F)cc2c(OC)c1OC", "values": [{"measurement": "bacterial growth OD600", "setting": "polymyxin B 0.75 µg/mL", "result": 0.835}]}
{"smiles": "COc1ccc(CCN2CCC(CN(C)Cc3cccc(C(C)=O)c3)CC2)cc1", "values": [{"measurement": "bacterial growth OD600", "setting": "polymyxin B 1 µg/mL", "result": 0.78}]}
{"smiles": "COC(=O)C1CCN(CC2(O)CCCN(Cc3cccc(C)c3)C2=O)CC1", "note": "(stereo unspecified)", "values": [{"measurement": "bacterial growth OD600", "setting": "polymyxin B 1 µg/mL", "result": 0.884}]}
{"smiles": "O=C(NCC1CCCN(c2ncccn2)C1)c1coc(CN2CCc3ccccc3C2)n1", "note": "(stereo unspecified)", "values": [{"measurement": "bacterial growth OD600", "setting": "polymyxin B 1 µg/mL", "result": 0.68}]}
{"smiles": "Fc1ccccc1CN1CCCC(NCC2CC2)C1", "note": "(stereo unspecified)", "values": [{"measurement": "bacterial growth OD600", "setting": "polymyxin B 0.75 µg/mL", "result": 0.861}]}
{"smiles": "O=C(NCc1ccon1)c1coc(CN2CCN(Cc3ccccc3)CC2)n1", "values": [{"measurement": "bacterial growth OD600", "setting": "polymyxin B 1 µg/mL", "result": 0.991}]}
{"smiles": "Cc1occc1C(=O)N(C)C(Cc1ccccc1)C1CCN(C(=O)C2COc3ccccc3O2)CC1", "note": "(stereo unspecified)", "values": [{"measurement": "bacterial growth OD600", "setting": "polymyxin B 0.75 µg/mL", "result": 0.006}]}
{"smiles": "CCCS(=O)(=O)N1CCC(C2CCN(Cc3cccnc3)CC2)C1", "note": "(stereo unspecified)", "values": [{"measurement": "bacterial growth OD600", "setting": "polymyxin B 0.75 µg/mL", "result": 0.916}]}
{"smiles": "O=C(c1cc(COc2ccccc2F)[nH]n1)N1CCCCC1c1cccnc1", "note": "(stereo unspecified)", "values": [{"measurement": "bacterial growth OD600", "setting": "polymyxin B 1 µg/mL", "result": 0.889}]}
{"smiles": "CCC(CC)N1C[C@H]2OC(=O)N(CCc3ccc(OC)cc3)[C@H]2C1", "values": [{"measurement": "bacterial growth OD600", "setting": "polymyxin B 1 µg/mL", "result": 1.07}]}
{"smiles": "CC(=O)c1cccc(OCc2cc(C(=O)NC3CCOC(C)(C)C3)n[nH]2)c1", "note": "(stereo unspecified)", "values": [{"measurement": "bacterial growth OD600", "setting": "polymyxin B 1 µg/mL", "result": 0.929}]}
{"smiles": "O=C1O[C@@H]2CN(c3ccc(C(F)(F)F)cn3)C[C@@H]2N1CCN1CCCCC1", "values": [{"measurement": "bacterial growth OD600", "setting": "polymyxin B 1 µg/mL", "result": 0.805}]}
{"smiles": "O=C(Cc1ccc(N2CCC(NCCc3ccncc3)CC2)cc1)NCc1ccccc1", "values": [{"measurement": "bacterial growth OD600", "setting": "polymyxin B 0.75 µg/mL", "result": 0.758}]}
{"smiles": "CCc1nc(C)ccc1OCC(=O)N1CCCC(CO)(CCOc2ccccc2)C1", "note": "(stereo unspecified)", "values": [{"measurement": "bacterial growth OD600", "setting": "polymyxin B 0.75 µg/mL", "result": 0.788}]}
{"smiles": "COc1ccc(CN2CCC(C(Cc3ccccc3Cl)N(C)C(=O)c3ccco3)CC2)cc1", "note": "(stereo unspecified)", "values": [{"measurement": "bacterial growth OD600", "setting": "polymyxin B 0.75 µg/mL", "result": 0.9}]}
